The supplement of paper PMC10849652
The list shows a part of the results. Residues, ends and D or L forms follow the SMILES beside them. *: point of attachment. Cbz = O=C(OCc1ccccc1)*

Protein sequences, listed by entry. Tags and fused reporters are not part of them. Lines headed by an entry give the natural chain unless they say otherwise; changes in a name come on top.
UniProt Q53HC9: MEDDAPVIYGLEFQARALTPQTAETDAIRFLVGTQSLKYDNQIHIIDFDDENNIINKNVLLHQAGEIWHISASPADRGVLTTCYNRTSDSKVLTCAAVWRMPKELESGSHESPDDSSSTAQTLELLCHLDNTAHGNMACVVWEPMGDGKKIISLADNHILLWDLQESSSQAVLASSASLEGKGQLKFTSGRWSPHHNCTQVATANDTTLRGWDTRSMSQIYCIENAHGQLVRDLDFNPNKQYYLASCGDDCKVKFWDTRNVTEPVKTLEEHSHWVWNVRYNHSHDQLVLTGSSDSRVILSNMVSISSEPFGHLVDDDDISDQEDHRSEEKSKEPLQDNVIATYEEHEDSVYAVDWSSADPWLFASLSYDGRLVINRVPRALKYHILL
UniProt P47813, whole entry, looked up: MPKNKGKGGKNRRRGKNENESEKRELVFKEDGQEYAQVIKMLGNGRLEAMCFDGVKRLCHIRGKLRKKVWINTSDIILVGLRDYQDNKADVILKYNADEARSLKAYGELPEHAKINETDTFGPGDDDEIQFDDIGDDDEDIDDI
UniProt O75356: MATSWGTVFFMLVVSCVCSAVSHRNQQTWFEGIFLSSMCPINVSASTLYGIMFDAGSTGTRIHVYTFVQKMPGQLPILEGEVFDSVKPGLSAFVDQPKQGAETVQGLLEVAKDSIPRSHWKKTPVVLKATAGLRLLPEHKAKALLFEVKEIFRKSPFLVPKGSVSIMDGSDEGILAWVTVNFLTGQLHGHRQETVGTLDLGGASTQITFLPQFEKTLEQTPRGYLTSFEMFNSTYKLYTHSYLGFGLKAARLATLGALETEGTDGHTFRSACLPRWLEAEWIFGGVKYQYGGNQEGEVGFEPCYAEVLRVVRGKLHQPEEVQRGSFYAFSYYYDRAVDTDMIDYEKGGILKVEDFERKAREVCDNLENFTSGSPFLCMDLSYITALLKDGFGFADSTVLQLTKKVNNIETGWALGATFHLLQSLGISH
UniProt Q13347, whole entry, looked up: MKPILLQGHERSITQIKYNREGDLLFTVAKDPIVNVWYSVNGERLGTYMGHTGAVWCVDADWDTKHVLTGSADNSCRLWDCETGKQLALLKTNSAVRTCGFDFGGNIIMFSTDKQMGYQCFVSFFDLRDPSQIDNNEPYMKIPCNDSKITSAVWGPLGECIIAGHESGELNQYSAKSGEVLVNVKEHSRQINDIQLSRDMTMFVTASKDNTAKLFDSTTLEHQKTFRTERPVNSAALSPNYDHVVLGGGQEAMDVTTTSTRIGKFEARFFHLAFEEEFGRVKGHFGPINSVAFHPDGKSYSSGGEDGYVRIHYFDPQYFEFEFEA
UniProt Q9NR50: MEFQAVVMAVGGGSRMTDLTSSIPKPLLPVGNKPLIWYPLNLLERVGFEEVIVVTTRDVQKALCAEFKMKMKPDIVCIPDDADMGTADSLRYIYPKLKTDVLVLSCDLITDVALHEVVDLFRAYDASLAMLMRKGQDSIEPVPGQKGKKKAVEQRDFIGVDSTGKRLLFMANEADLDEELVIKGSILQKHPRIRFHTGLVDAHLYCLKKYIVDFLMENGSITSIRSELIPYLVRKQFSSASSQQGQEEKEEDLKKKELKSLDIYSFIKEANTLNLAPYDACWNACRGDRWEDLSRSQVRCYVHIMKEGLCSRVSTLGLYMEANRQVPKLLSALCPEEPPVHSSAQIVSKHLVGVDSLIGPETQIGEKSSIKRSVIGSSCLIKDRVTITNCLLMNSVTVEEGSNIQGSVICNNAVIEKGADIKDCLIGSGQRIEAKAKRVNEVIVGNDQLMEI
UniProt O43402: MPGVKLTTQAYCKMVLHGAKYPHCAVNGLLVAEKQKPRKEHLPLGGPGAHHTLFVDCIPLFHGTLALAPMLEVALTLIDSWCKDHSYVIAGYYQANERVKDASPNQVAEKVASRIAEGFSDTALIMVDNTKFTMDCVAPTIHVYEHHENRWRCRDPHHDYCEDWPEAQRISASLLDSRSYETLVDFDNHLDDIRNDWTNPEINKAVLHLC
UniProt P11171, whole entry, looked up: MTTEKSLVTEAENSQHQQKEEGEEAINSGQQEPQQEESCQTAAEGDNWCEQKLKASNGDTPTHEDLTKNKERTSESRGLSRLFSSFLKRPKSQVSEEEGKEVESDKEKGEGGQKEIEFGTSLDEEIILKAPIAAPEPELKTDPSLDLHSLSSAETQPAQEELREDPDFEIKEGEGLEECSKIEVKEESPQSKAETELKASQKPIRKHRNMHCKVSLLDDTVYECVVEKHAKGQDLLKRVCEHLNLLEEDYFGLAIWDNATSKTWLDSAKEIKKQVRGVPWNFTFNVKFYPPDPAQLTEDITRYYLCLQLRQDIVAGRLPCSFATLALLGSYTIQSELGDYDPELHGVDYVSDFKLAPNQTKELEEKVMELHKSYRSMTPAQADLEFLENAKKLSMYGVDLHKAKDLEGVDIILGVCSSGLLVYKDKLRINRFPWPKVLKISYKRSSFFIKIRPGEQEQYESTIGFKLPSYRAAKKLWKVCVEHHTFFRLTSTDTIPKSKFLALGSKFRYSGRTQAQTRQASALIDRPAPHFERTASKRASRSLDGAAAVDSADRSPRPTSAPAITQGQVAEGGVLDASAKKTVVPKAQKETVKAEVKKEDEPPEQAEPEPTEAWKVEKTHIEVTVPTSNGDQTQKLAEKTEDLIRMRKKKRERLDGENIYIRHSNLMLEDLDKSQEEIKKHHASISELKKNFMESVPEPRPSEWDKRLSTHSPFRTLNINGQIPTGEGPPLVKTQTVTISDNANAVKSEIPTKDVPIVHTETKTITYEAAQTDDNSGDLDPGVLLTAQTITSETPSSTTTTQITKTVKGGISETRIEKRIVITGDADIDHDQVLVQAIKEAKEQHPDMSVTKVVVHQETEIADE
UniProt P55010, whole entry, looked up: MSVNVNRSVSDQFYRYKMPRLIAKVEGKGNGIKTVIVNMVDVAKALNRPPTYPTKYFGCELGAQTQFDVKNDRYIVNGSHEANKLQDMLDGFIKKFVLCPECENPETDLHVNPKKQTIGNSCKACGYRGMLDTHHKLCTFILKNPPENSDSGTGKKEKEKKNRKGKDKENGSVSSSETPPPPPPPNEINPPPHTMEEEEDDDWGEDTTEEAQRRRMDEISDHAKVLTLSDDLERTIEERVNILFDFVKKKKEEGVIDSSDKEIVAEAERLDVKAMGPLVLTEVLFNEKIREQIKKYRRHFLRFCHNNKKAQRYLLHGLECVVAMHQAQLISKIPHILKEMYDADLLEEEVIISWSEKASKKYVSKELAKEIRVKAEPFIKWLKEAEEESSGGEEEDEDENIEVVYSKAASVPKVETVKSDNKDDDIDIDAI
UniProt O43324: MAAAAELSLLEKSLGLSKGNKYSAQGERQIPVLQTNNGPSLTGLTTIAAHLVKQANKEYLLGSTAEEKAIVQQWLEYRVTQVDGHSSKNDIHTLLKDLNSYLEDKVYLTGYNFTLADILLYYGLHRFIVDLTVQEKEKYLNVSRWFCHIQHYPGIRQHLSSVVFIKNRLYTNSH
UniProt Q9UHY7: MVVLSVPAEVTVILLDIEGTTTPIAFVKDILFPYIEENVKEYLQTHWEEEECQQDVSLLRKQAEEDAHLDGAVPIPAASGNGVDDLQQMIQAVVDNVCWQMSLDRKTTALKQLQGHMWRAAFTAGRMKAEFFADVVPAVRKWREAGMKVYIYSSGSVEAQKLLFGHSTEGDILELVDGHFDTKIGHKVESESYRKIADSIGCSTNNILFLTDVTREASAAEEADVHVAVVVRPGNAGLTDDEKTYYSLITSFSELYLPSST
UniProt O15371, whole entry, looked up: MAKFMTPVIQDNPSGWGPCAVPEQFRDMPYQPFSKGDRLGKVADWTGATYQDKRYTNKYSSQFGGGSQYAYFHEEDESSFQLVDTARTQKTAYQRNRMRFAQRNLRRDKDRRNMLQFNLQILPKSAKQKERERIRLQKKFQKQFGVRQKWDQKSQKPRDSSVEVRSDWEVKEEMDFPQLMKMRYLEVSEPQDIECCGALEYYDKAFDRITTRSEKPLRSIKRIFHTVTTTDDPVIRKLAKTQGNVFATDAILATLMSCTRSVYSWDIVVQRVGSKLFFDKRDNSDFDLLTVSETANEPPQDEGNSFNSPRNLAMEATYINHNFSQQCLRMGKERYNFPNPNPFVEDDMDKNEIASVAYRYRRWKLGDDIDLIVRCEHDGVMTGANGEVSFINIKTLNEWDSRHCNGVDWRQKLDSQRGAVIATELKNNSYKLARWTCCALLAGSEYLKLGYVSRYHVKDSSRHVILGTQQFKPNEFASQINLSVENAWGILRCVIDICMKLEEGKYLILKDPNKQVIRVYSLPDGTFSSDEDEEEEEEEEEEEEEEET
UniProt P20042, whole entry, looked up: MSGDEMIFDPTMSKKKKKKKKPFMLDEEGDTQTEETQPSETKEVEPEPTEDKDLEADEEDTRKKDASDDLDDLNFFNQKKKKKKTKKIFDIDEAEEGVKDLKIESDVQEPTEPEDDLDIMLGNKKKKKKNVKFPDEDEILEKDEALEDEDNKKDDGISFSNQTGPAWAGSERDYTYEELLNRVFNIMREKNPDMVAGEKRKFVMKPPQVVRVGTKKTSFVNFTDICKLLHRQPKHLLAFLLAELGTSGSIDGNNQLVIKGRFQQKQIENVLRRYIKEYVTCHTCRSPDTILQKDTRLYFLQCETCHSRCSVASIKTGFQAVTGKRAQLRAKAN
UniProt Q9H9T3: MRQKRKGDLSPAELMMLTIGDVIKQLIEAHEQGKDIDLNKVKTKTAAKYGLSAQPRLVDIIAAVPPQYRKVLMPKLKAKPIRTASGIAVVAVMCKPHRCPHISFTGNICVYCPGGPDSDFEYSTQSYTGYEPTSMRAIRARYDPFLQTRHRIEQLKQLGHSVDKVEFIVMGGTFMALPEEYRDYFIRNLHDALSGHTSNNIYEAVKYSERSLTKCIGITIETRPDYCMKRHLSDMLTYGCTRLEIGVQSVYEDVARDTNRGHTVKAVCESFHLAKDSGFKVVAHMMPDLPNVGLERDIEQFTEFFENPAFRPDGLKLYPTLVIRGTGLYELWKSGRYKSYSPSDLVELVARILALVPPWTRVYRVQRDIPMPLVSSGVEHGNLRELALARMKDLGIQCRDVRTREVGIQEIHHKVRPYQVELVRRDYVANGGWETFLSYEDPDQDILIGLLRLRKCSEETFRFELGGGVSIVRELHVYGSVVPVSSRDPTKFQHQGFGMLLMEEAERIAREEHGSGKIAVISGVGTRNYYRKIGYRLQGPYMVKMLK
UniProt P78344: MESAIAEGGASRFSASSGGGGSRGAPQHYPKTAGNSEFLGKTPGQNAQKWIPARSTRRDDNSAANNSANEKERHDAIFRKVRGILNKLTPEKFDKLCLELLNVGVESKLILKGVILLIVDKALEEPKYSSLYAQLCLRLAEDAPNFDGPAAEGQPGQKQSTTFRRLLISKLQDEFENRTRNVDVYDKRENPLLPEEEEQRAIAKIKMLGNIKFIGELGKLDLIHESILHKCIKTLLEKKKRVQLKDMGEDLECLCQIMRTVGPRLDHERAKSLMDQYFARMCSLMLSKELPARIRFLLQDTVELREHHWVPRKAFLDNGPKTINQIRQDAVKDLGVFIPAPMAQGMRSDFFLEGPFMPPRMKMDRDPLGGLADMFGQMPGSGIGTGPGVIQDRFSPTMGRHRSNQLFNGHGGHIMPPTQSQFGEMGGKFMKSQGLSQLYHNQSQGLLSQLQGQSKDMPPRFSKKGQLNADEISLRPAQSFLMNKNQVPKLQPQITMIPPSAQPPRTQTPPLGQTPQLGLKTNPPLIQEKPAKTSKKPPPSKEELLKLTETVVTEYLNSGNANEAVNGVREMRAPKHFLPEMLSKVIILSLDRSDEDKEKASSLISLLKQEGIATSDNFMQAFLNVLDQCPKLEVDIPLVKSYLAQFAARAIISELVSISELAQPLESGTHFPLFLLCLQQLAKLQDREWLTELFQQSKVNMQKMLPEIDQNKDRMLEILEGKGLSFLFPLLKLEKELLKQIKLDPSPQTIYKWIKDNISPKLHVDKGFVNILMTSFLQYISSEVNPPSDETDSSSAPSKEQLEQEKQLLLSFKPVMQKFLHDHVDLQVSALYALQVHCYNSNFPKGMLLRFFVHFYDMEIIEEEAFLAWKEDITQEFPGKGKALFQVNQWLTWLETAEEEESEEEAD

Assays:
Test in all cases: log2 fold change, soluble protein after heating vs DMSO (PISA); higher = thermal stabilisation; K562 cells, 10 uM, 30 min; active = over 0.2 and 3.5 SD of the protein, either way, in both replicates (recomputed)
erlotinib = compound: C#Cc1cccc(Nc2ncnc3cc(OCCOC)c(OCCOC)cc23)c1 [erlotinib]
How it was run: (§1)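 Quantification of soluble protein used TMTpro 16plex LC-MS/MS, with channel sums equalised. Samples were the supernatant after 21,000xg for 90 min of pooled aliquots from K562 cells (2×10^6 cells/mL) treated with 10 μM compound for 30 min, heated for 3 min over 48°C-58°C, and extracted in PBS with 0.5% NP-40 at 4°C. Values, from duplicates, describe thermal stability against control samples on a log2 fold-change scale.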

[1] = compound: C/C(=N\NC(=O)C1=CC(=CC=C1)S(=O)(=O)N2CCOCC2)/C3=C(C=CC(=C3)Cl)O
How it was run: as §1

[2] = compound: C1=CC(=C(C=C1Cl)C2=NC3=NC=CN=C3C(=N2)NC4=CC=NC=C4)F
How it was run: as §1

[3] = compound: C1=CC(=CC=C1C2=NC3=C(N2)C=C(C=C3)C(=O)N)OC4=CC=C(C=C4)Cl
How it was run: as §1

[4] = compound: C1=CC2=C(C=CC(=C2)/C=C\3/C(=O)NC(=NCC4=CC=CS4)S3)N=C1
How it was run: as §1

[5] = compound: C1=CC2=NC=CN=C2C=C1/C=C/3\C(=O)NC(=O)S3
How it was run: as §1

[6] = compound: C1=CC=C(C=C1)C2=NC(=C(N2)C3=CC=NC=C3)C4=CC(=C(C=C4)Cl)O
How it was run: as §1

[7] = compound: C1=CC=C2C(=C1)C3=NNC4=CC=CC(=C43)C2=O
How it was run: as §1

[8] = compound: C1CCN(C1)C(=O)NC2=CC=CC(=C2)NC3=NC=C(C(=N3)NCCC4=CN=CN4)Br
How it was run: as §1

[9] = compound: C1CN(CCC1(CC2=CC=C(C=C2)Cl)N)C3=NC=NC4=C3C=CN4
How it was run: as §1

IRAK-1-4 Inhibitor I = compound: C1COCCN1CCN2C3=CC=CC=C3N=C2NC(=O)C4=CC(=CC=C4)[N+](=O)[O-] [IRAK-1-4 Inhibitor I]
How it was run: as §1

ibrutinib = compound: C=CC(=O)N1CCC[C@@H](n2nc(-c3ccc(Oc4ccccc4)cc3)c3c(N)ncnc32)C1 [ibrutinib]
How it was run: as §1

[10] = compound: CC(=O)c1cnc2ccc(-c3cc(Cl)c(O)c(Cl)c3)nc2c1N[C@H]1CC[C@H](CN(C)C)CC1
How it was run: as §1

ralimetinib = compound: CC(C)(C)Cn1c(N)nc2ccc(-c3[nH]c(C(C)(C)C)nc3-c3ccc(F)cc3)nc21 [ralimetinib]
How it was run: as §1

[11] = compound: CC(C)(O)CC(=O)NCCn1ccc2ncnc(Nc3ccc(Oc4cccc(C(F)(F)F)c4)c(Cl)c3)c21
How it was run: as §1

[12] = compound: CC(C)C1=C2N=C(C=C(N2N=C1)NCC3=CC=CC=C3)NCCCCCCN
How it was run: as §1

[13] = compound: CC(C)C[C@@H](C=O)NC(=O)[C@H](CC(C)C)NC(=O)[C@H](CC(C)C)NC(=O)OCc1ccccc1
How it was run: as §1

pinometostat = compound: CC(C)N(C[C@H]1O[C@@H](n2cnc3c(N)ncnc32)[C@H](O)[C@@H]1O)[C@H]1C[C@@H](CCc2nc3cc(C(C)(C)C)ccc3[nH]2)C1 [pinometostat]
How it was run: as §1

[14] = compound: CC1=C(C(CC(=O)N1)C2=CC=C(C=C2)C(F)(F)F)C(=O)NC3=C(C=C4C(=C3)C=NN4)F
How it was run: as §1

[15] = compound: CC1=C(C2=C(C=C1)C(=O)C3=CC=CC=C3N2CCCN)C
How it was run: as §1

Measured: log2 fold change

EIPR1 (UniProt Q53HC9)
inactive: erlotinib -0.002 | [1] 0.05 | [2] 0.048 | [3] -0.002 | [4] -0.007 | [5] -0.051 | [6] 0 | [7] -0.012 | [8] -0.058 | [9] 0.032 | IRAK-1-4 Inhibitor I 0.025 | ibrutinib 0.006 | [10] 0.024 | ralimetinib -0.006 | [11] 0.055 | [12] -0.01 | [13] -0.07 | pinometostat -0.031 | [14] -0.012 | [15] -0.003

EIF1AX (UniProt P47813)
inactive: erlotinib -0.04 | [1] 0.012 | [2] -0.015 | [3] -0.017 | [4] -0.019 | [5] 0.017 | [6] 0.085 | [7] -0.002 | [8] 0.018 | [9] -0.052 | IRAK-1-4 Inhibitor I 0.051 | ibrutinib -0.043 | [10] 0.006 | ralimetinib 0.034 | [11] 0.023 | [12] 0.002 | [13] -0.023 | pinometostat -0.023 | [14] -0.035 | [15] -0.057

ENTPD5 (UniProt O75356)
inactive: erlotinib -0.017 | [1] 0.071 | [2] -0.053 | [3] 0.029 | [4] 0.139 | [5] -0.04 | [6] -0.009 | [7] 0.047 | [8] -0.049 | [9] -0.107 | IRAK-1-4 Inhibitor I 0.019 | ibrutinib -0.015 | [10] -0.042 | ralimetinib -0.031 | [11] -0.045 | [12] -0.012 | [13] -0.008 | pinometostat -0.034 | [14] -0.056 | [15] -0.013

EIF3I (UniProt Q13347)
inactive: erlotinib 0.035 | [1] 0.076 | [2] -0.049 | [3] -0.056 | [4] 0.04 | [5] -0.008 | [6] -0.004 | [7] 0.009 | [8] 0.004 | [9] -0.094 | IRAK-1-4 Inhibitor I -0.121 | ibrutinib -0.035 | [10] 0.019 | ralimetinib 0.054 | [11] -0.073 | [12] -0.191 | [13] 0.078 | pinometostat 0.148 | [14] 0.017 | [15] -0.027

EIF2B3 (UniProt Q9NR50)
inactive: erlotinib 0.003 | [1] 0.054 | [2] -0.025 | [3] 0.043 | [4] 0.007 | [5] 0.008 | [6] 0.042 | [7] -0.014 | [8] 0.015 | [9] -0.06 | IRAK-1-4 Inhibitor I -0.024 | ibrutinib -0.009 | [10] -0.015 | ralimetinib 0.053 | [11] -0.004 | [12] -0.101 | [13] 0.058 | pinometostat 0.071 | [14] 0.035 | [15] 0

EIF4H (UniProt Q15056)
inactive: erlotinib 0.104 | [1] 0.008 | [2] 0.009 | [3] 0.029 | [4] -0.015 | [5] 0.019 | [6] -0.003 | [7] 0.031 | [8] 0.005 | [9] 0.033 | IRAK-1-4 Inhibitor I 0.02 | ibrutinib -0.033 | [10] -0.025 | ralimetinib -0.013 | [11] 0.011 | [12] -0.06 | [13] 0.037 | pinometostat -0.064 | [14] 0.034 | [15] -0.043

EMC8 (UniProt O43402)
inactive: erlotinib -0.007 | [1] -0.069 | [2] 0.063 | [3] 0.008 | [4] 0.035 | [5] 0.054 | [6] -0.003 | [7] -0.005 | [8] 0.002 | [9] 0.038 | IRAK-1-4 Inhibitor I 0.089 | ibrutinib 0.012 | [10] 0.01 | ralimetinib -0.026 | [11] -0.029 | [12] 0.032 | [13] -0.007 | pinometostat 0.01 | [14] -0.013 | [15] 0

EPB41 (UniProt P11171)
inactive: erlotinib -0.025 | [1] 0.054 | [2] -0.042 | [3] 0.042 | [4] -0.023 | [5] -0.015 | [6] -0.036 | [7] -0.07 | [8] 0.001 | [9] -0.016 | IRAK-1-4 Inhibitor I 0.011 | ibrutinib -0.011 | [10] -0.099 | ralimetinib 0.004 | [11] -0.011 | [12] -0.044 | [13] 0.012 | pinometostat 0.018 | [14] -0.027 | [15] 0.025

EIF5 (UniProt P55010)
inactive: erlotinib 0.002 | [1] 0.07 | [2] 0.003 | [3] -0.002 | [4] 0.023 | [5] 0.006 | [6] 0.013 | [7] 0.026 | [8] 0.001 | [9] 0.008 | IRAK-1-4 Inhibitor I 0.025 | ibrutinib -0.015 | [10] -0.004 | ralimetinib -0.02 | [11] 0.001 | [12] -0.033 | [13] 0.014 | pinometostat -0.017 | [14] -0.016 | [15] 0.09

2 entries drawn at random from the list so far, as already listed:
EPB41 (UniProt P11171)
inactive: erlotinib -0.025 | [1] 0.054 | [2] -0.042 | [3] 0.042 | [4] -0.023 | [5] -0.015 | [6] -0.036 | [7] -0.07 | [8] 0.001 | [9] -0.016 | IRAK-1-4 Inhibitor I 0.011 | ibrutinib -0.011 | [10] -0.099 | ralimetinib 0.004 | [11] -0.011 | [12] -0.044 | [13] 0.012 | pinometostat 0.018 | [14] -0.027 | [15] 0.025

EIF3I (UniProt Q13347)
inactive: erlotinib 0.035 | [1] 0.076 | [2] -0.049 | [3] -0.056 | [4] 0.04 | [5] -0.008 | [6] -0.004 | [7] 0.009 | [8] 0.004 | [9] -0.094 | IRAK-1-4 Inhibitor I -0.121 | ibrutinib -0.035 | [10] 0.019 | ralimetinib 0.054 | [11] -0.073 | [12] -0.191 | [13] 0.078 | pinometostat 0.148 | [14] 0.017 | [15] -0.027

More results follow.

EEF1E1 (UniProt O43324)
inactive: erlotinib 0.032 | [1] -0.012 | [2] -0.067 | [3] -0.05 | [4] 0.012 | [5] 0.02 | [6] 0.005 | [7] 0 | [8] 0.015 | [9] -0.047 | IRAK-1-4 Inhibitor I -0.005 | ibrutinib -0.029 | [10] 0.111 | ralimetinib 0.054 | [11] 0.004 | [12] -0.145 | [13] 0.051 | pinometostat 0.191 | [14] 0.019 | [15] -0.01

ENOPH1 (UniProt Q9UHY7)
inactive: erlotinib 0.048 | [1] 0.105 | [2] 0.103 | [3] 0.055 | [4] 0.015 | [5] -0.011 | [6] 0.017 | [7] 0.027 | [8] -0.075 | [9] -0.266 | IRAK-1-4 Inhibitor I -0.096 | ibrutinib -0.025 | [10] -0.068 | ralimetinib 0.04 | [11] -0.143 | [12] -0.329 | [13] -0.031 | pinometostat 0.058 | [14] -0.041 | [15] -0.2

EIF3D (UniProt O15371)
inactive: erlotinib 0.023 | [1] 0.106 | [2] -0.054 | [3] -0.082 | [4] 0.071 | [5] -0.012 | [6] -0.023 | [7] -0.008 | [8] -0.028 | [9] -0.047 | IRAK-1-4 Inhibitor I -0.179 | ibrutinib -0.038 | [10] -0.024 | ralimetinib 0.135 | [11] -0.034 | [12] -0.332 | [13] 0.101 | pinometostat 0.22 | [14] 0.048 | [15] -0.109

EIF6 (UniProt P56537)
inactive: erlotinib 0.019 | [1] -0.095 | [2] -0.03 | [3] 0.011 | [4] 0.062 | [5] 0.047 | [6] -0.062 | [7] -0.02 | [8] 0.077 | [9] 0.096 | IRAK-1-4 Inhibitor I 0.044 | ibrutinib 0.04 | [10] 0.015 | ralimetinib -0.036 | [11] 0.058 | [12] 0.08 | [13] 0.006 | pinometostat -0.026 | [14] 0.053 | [15] 0.09

EIF2S2 (UniProt P20042)
inactive: erlotinib -0.022 | [1] -0.071 | [2] -0.148 | [3] -0.013 | [4] -0.087 | [5] 0.013 | [6] -0.028 | [7] -0.021 | [8] 0.011 | [9] -0.054 | IRAK-1-4 Inhibitor I -0.069 | ibrutinib 0.035 | [10] 0.032 | ralimetinib 0.099 | [11] 0.071 | [12] 0.077 | [13] 0.077 | pinometostat 0.111 | [14] 0.03 | [15] 0.118

ELP3 (UniProt Q9H9T3)
inactive: erlotinib -0.004 | [1] -0.044 | [2] 0.028 | [3] 0.008 | [4] 0.021 | [5] -0.001 | [6] 0.034 | [7] 0.003 | [8] -0.014 | [9] 0.01 | IRAK-1-4 Inhibitor I 0.002 | ibrutinib -0.001 | [10] -0.012 | ralimetinib -0.011 | [11] -0.09 | [12] 0.017 | [13] -0.047 | pinometostat -0.007 | [14] 0.05 | [15] 0.026

EIF4G2 (UniProt P78344)
inactive: erlotinib 0.052 | [1] 0.024 | [2] -0.373 | [3] -0.036 | [4] 0.058 | [5] -0.016 | [6] -0.037 | [7] 0.025 | [8] -0.09 | [9] -0.17 | IRAK-1-4 Inhibitor I -0.112 | ibrutinib -0.065 | [10] 0.018 | ralimetinib 0.224 | [11] 0.005 | [12] -0.352 | [13] 0.15 | pinometostat 0.425 | [14] -0.074 | [15] -0.046
